From the supplement of paper PMC5949888
± gives the standard deviation of the averaged measurements. Most values lie at the floor of the assay. Slopes are relative: functional sequences can read slightly below zero.

What follows are substances tested on Saccharomyces cerevisiae PS128 hsf1 delta, HSF1(1-493) fusion (assay: growth estimate (transactivation domain function in HSF1 fusion, heat-shock survival) (a.u. (slope of normalised read count over time)); higher = stronger growth at 37°C, i.e. more transactivation activity). Conditions: library: random library.
RCVPVWGVPCRRA was tested, and the growth estimate was less than -0.25. CLCAQGLFSI gave a growth estimate of less than -0.25. In the case of FLRAFRSLYKNEWASHAICV, the growth estimate is reported as less than -0.25. Work on NRLLAPLAVWWLTQAMSALL yielded a growth estimate of less than -0.25. PRFKPERTAHVPKLSVSG gave a growth estimate of less than -0.25. WLLVAWLSGGYTIMETTRHS gave a growth estimate of less than -0.25. TDLIRWLYTGPVRCWSVIGY was tested, and the growth estimate was less than -0.25. Substance VLGID has a growth estimate of less than -0.25. Substance IALV has a growth estimate of less than -0.25. GCRDRMHARVRAV was tested, and the growth estimate was less than -0.25. Substance PPGKWRTGVVLSIETRRRRS has a growth estimate of less than -0.25. Work on SQVYKRKADSGRD yielded a growth estimate of less than -0.25. Substance IPPHQSTPVHPGTSDART has a growth estimate of -0.229. For VIAWVSQAHKSKLLCISWLA, the growth estimate was less than -0.25. KGPLESVKCRWSFKIPLSVA showed a growth estimate of less than -0.25. In the case of EGRVTHLSCDLLSESGGFSL, the growth estimate is reported as less than -0.25. Substance RCSQSTIKLKERQWTRSRAG has a growth estimate of -0.245. Substance VGVPHTLAGSPLASEYAE has a growth estimate of less than -0.25. Work on GGLAS yielded a growth estimate of less than -0.25. In the case of CVPHTWARERSIPQIPAPSD, the growth estimate is reported as less than -0.25. IVRSFLLWVLSVMQCSRRLT showed a growth estimate of less than -0.25. Substance VQVEHGPKVGVQATLGARFT has a growth estimate of less than -0.25. ATLLLTRTRGQQ was tested, and the growth estimate was less than -0.25. VVP was tested, and the growth estimate was less than -0.25. DKAILIRLYALRSYVYTRAS gave a growth estimate of less than -0.25. SSAL was tested, and the growth estimate was less than -0.25. SHN showed a growth estimate of less than -0.25. For SGLVCPDGGWVCRPSLSKLW, the growth estimate was less than -0.25. LSYVL showed a growth estimate of less than -0.25. For TYRSLSAWWD, the growth estimate was less than -0.25. In the case of IARISVIERSNVIASLTCRP, the growth estimate is reported as less than -0.25. For QDLDVGSFKHYSYSLFQMRR, the growth estimate was less than -0.25. With ISRQKTISGRRY the growth estimate was less than -0.25. For VRYL, the growth estimate was less than -0.25. PHEWNKDM gave a growth estimate of less than -0.25. EKRSTRAS showed a growth estimate of less than -0.25. For PCTSQLVCDSDYRLNAS, the growth estimate was less than -0.25. For ITEIREN, the growth estimate was less than -0.25. For EVYTLNKSPGVQANQVSCPH, the growth estimate was less than -0.25. Substance LRRH has a growth estimate of less than -0.25. Substance CCHDLGSAKDYLFSLLMSQG has a growth estimate of less than -0.25. IWSQISDLELSIISRALDES gave a growth estimate of less than -0.25. For PIIRCVTKESTVMRHNVRSP, the growth estimate was less than -0.25. LECSSCLMHNASAGRGCACD gave a growth estimate of less than -0.25. With NYRVIDFTYIATPSDILVAT the growth estimate was less than -0.25. Work on CQMFSLTPVSALAGWCLRFG yielded a growth estimate of -0.211. YGGPLMRIGDRLAFLF showed a growth estimate of less than -0.25. Work on QEHGRVELACQRSTMLDV yielded a growth estimate of less than -0.25. ITTIVRISEARSNIFIAFLF showed a growth estimate of less than -0.25. Substance GTIGRQSLTGYF has a growth estimate of less than -0.25. In the case of VNFGPDGTYGERNYH, the growth estimate is reported as less than -0.25. MKQATAVPRPRAEQCSERLD gave a growth estimate of less than -0.25. GLEP gave a growth estimate of less than -0.25. For RWRRIPKPIPRVEARFSSGY, the growth estimate was less than -0.25. RTF was tested, and the growth estimate was -0.224 ± 0.037. For HRNAIVRDEVRCP, the growth estimate was less than -0.25. With SSPSLL the growth estimate was less than -0.25. WIEHRIGLWHSARVFQLDSS was tested, and the growth estimate was less than -0.25. KRRPGRYGRFGLPRLDGNTR showed a growth estimate of less than -0.25. Substance LQSPTIRVDYALFRGGTLPT has a growth estimate of less than -0.25. Substance ECCELSNRE has a growth estimate of less than -0.25. With PSELPH the growth estimate was less than -0.25. TRKSTPRRVINYGDLGGRLR showed a growth estimate of less than -0.25. IPRLNATNIPHTPAGHSMWP showed a growth estimate of less than -0.25. In the case of KIERCGKRHLGRTGQMSPNI, the growth estimate is reported as -0.112. With IAPVWDTDVISNLG the growth estimate was less than -0.25. VRGGR was tested, and the growth estimate was less than -0.25. Substance RQWIRLLGLAGATV has a growth estimate of less than -0.25. Substance RAVGVRGLLTCLARKYNGPQ has a growth estimate of -0.231. Work on NLHGCRSQYA yielded a growth estimate of less than -0.25. VWSRGRQGDR gave a growth estimate of less than -0.25. DNSPMNLRVRE was tested, and the growth estimate was less than -0.25. LLRRNYDGPMCRLRSAVDQG showed a growth estimate of less than -0.25. CAFYLSLSLLGHYAACLSLP gave a growth estimate of less than -0.25. Substance RSWIQWNDEGSI has a growth estimate of -0.205. KVNGLGYPRGCRCLGDKRRQ showed a growth estimate of less than -0.25. Substance LTRFHRHLLDST has a growth estimate of less than -0.25. Substance SSIHLLRRAGALLCVSPSLR has a growth estimate of less than -0.25. Substance ERSYLPLTTSEWVVFESRNS has a growth estimate of less than -0.25. GINSRLVRSGPQTSNN was tested, and the growth estimate was less than -0.25. GCLSGIRRYSCAAFGMGQRA gave a growth estimate of less than -0.25. With VANRWGNESAWDGSCAGLWH the growth estimate was 0.14. Substance RAPREPRSLRTRHQDPGSLG has a growth estimate of less than -0.25. WDKLAT gave a growth estimate of less than -0.25. For PIDIREAVRIVKQVAFLNIS, the growth estimate was less than -0.25. KTAIGVEDGTLRYGENWSRT was tested, and the growth estimate was less than -0.25. GWLLRGRKIQTD gave a growth estimate of less than -0.25. For VTCIQVRRCVLYRTGLCSDH, the growth estimate was less than -0.25. With CVVSTSYSRHAGRRQFQIVM the growth estimate was less than -0.25. QGEFSGILRPEGGDTRAETS gave a growth estimate of less than -0.25. Substance SSRSST has a growth estimate of less than -0.25. CGARCVLAPSWSILYTVLPF showed a growth estimate of less than -0.25. In the case of TRGCFRSDGQRQAGGGTLRV, the growth estimate is reported as less than -0.25. Work on QWGRTVREAE yielded a growth estimate of less than -0.25. Substance TRTD has a growth estimate of less than -0.25. Substance RWLSSL has a growth estimate of less than -0.25. Substance RHAGLMSSHMSKIMVLKVAI has a growth estimate of less than -0.25. RKPTFDGR was tested, and the growth estimate was less than -0.25. In the case of NTHRHYANGVGCQVPLQTPR, the growth estimate is reported as less than -0.25.
